Values of other authors, collected in paper PMC12705613 (Frontiers in Microbiology, 2025).

Details: ref Zhou et al., 2023; cited from earlier work

SMILES: COC(=O)C1=C(C)NC(C)=C(C(=O)OC)C1c1ccccc1[N+](=O)[O-] [nifedipine]
- Bioavailability in SHRs vs Wistar rats: lower
